Test results published in PubChem BioAssay AID1347076 (National Center for Advancing Translational Sciences (NCATS), 2019).
The whole screen tested about 400,000 compounds, of which about 13,000 (3.2%) were called active. The inconclusive results got no clear call from the source; some entries with a clear call stand among them for comparison. Calls come from the whole dose curve; as a rule, active = well fitted cell-killing curve with a large enough effect; inconclusive = small, poorly fitted or top-dose-only effect, or effect the other way; inactive = flat fitted curve, though single readings scatter. Potencies of inconclusive entries are doubtful fits and often do not repeat.

Experiment: qHTS assay for MDR1-selective chemotherapeutics: Primary screen using the drug-selected MDR subline cells KB-V1; note: nearly all actives have a fitted effect of over 60% in size
Details: KB-V1 MDR cells viability, CellTiter-Glo, 72 h; activity change, negative = cytotoxicity: at 46.1 µM (top of the series)
In short: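 Compound-treated KB-V1 multidrug-resistant cells, 72 h, 37 degrees C; viability by CellTiter-Glo. Fitted qHTS curves give the values.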
% is set by controls: 0 for no effect and ±100 for the full control effect; potency is the fitted concentration of half-maximal effect.

| SMILES | Potency | activity change, negative = cytotoxicity |
| --- | --- | --- |
| O=C(CC1SC(=Nc2ccccc2)N(CCCO)C1=O)Nc1ccc(Cl)cc1 (configuration not stated) | inconclusive: 23.1 µM [cytotoxic, single point] | – |
| COC(=O)[C@@]12C[C@@H](CC(=O)NCc3cccs3)C(=O)N(Cc3ccco3)C1=CCC(C)(C)C2 | inconclusive: 3.26 µM [cytotoxic, full curve] | – |
| CCn1nnc2cc(C(=O)Nc3cccc(Cl)c3C)ccc21 | inconclusive: 23.1 µM [cytotoxic, single point] | – |
| O=C(COc1ccccc1)Nc1ccc(CN2CCCCC2)cc1 | inconclusive: 29.1 µM [rising, single point] | – |
| Cc1cc(C)c(C(CC(=O)c2cccs2)C(C#N)C#N)c(C)c1 (configuration not stated) | inactive | – |
| c1ccc(CCNc2ccc3ncc(-c4cccc5ccccc45)n3n2)nc1 | active: 13 µM | – |
| O=C(Nc1cnn(Cc2c(Cl)cccc2Cl)c1)c1ccc([N+](=O)[O-])cc1 | inconclusive: 23.1 µM [cytotoxic, single point] | – |
| COc1cccc(C(=O)Nc2cccc(C(=O)N3CCOCC3)c2)c1 | inactive | – |
| Cc1c(NC(=O)c2ccc(Br)s2)c(=O)n(-c2ccccc2)n1C | inconclusive: 29.1 µM [cytotoxic, single point] | – |
| Cc1ccc(-c2csc3ncnc(NCCN4CCOCC4)c23)cc1 | inactive | – |
| Cc1ccc(-n2nnnc2Sc2nc([N+](=O)[O-])nn2C)cc1 | inactive | – |
| CCOc1cc(C(=O)Nc2ccc(C)cc2C)ccc1OCC(=O)N1CCCCC1 | inactive | – |
| COc1cc(/C=N/n2c(C)n[nH]c2=S)ccc1OCc1ccccc1 | inconclusive: 23.1 µM [rising, single point] | – |
| O=C(CN1CCCCC1)NC(=O)NC1CCCC1 | inactive | – |
| COc1cc(O)c(C(CCN2CCCC2)c2ccc3c(c2)OCO3)c(OC)c1 (configuration not stated) | inconclusive: 32.6 µM [rising, single point] | – |
| Cc1cccc(C)c1NC(=S)NC(=O)c1ccccc1F | inconclusive: 18.4 µM [cytotoxic, single point] | – |
| CCOc1ccc(C(C)=O)cc1COC(=O)c1cccnc1SC | inactive | – |
| CCCc1nnc(NC(=O)c2cccc(OC)c2)s1 | active: 18.4 µM | – |
| Cc1nn(C)c(Cl)c1CN1CCN(C2CCCCC2)C(CCO)C1 (configuration not stated) | inactive | – |
| O=c1ccn([C@@H]2O[C@H](CNCc3cccn3-c3nccs3)[C@@H](O)[C@H]2O)c(=O)[nH]1 | inactive | – |
| C#CCOCCOCCOCCNc1nc(N2CCN(C(=O)Cn3cc(CCCN=C(N)N)nn3)CC2)nc(N2CCN(C(=O)[C@H]([C@@H](C)O)n3cc(CCCCN)nn3)CC2)n1 | inconclusive: 29.1 µM [cytotoxic, partial curve, poor fit] | – |
| CCCCNC(=O)c1ccc2nc(-c3ccco3)c(-c3ccco3)nc2c1 | inconclusive: 2.59 µM [rising, partial curve, poor fit] | – |
| OCC1(Cc2ccc(Cl)cc2)CCN(CCCc2ccccc2)CC1 | inactive | – |
| Cc1cccc(NC(=O)CSc2ccc(-c3cccnc3)nn2)c1 | inconclusive: 11.6 µM [cytotoxic, partial curve] | – |

| SMILES | Potency | activity change, negative = cytotoxicity |
| --- | --- | --- |
| Cc1ccc(NS(=O)(=O)c2ccc(C(=O)N3CCN(c4ccccn4)CC3)cc2)cc1 | inconclusive: 29.1 µM [cytotoxic, partial curve, poor fit] | – |
| CCN(CC(=O)NCc1ccc(Cl)cc1)C(=O)CCc1ccccc1O | inconclusive: 16.4 µM [cytotoxic, partial curve, poor fit] | – |
| CC1C(=O)C(C)C(c2cc(Cl)ccc2O)NC1c1cc(Cl)ccc1O (configuration not stated) | inactive | – |
| CCCNC(=O)CSc1nc2ccccc2nc1Cc1ccc(Cl)cc1 | inactive | – |
| Cc1ccc(C(=O)NCC(=O)OCC(=O)c2ccccc2)s1 | inconclusive: 29.1 µM [rising, single point] | – |
| CCC(C)Oc1nc(C)cc(C)c1S(=O)(=O)c1ccccc1C (configuration not stated) | inconclusive: 20.6 µM [cytotoxic, single point] | – |
| COC(=O)c1ccc2nc(-c3ccc(F)cc3)c(Cc3cccc(Cl)c3)n2c1 | inconclusive: 7.31 µM [cytotoxic, partial curve] | – |
| CCOC(=O)/C(=C\c1ccc([N+](=O)[O-])cc1)C(=O)c1cc(C(C)=O)c(Nc2ccccc2)s1 | active: 8.2 µM | – |
| CCN(CC)c1ccc(/C=N/n2c(C)nc3ccccc3c2=O)cc1 | inconclusive: 7.31 µM [cytotoxic, partial curve, poor fit] | – |
| Cn1c(-c2sccc2OCc2ccc(Cl)cc2Cl)n[nH]c1=S | inconclusive: 16.4 µM [cytotoxic, single point] | – |
| COC(=O)c1cc2c(ccn2-c2ccc(F)cc2)n1Cc1ccc(OC(C)=O)cc1 | inconclusive: 29.1 µM [cytotoxic, single point] | – |
| Cc1noc(C)c1COc1ccc(C(=O)N(C)CCOc2ccccc2)cc1 | inconclusive: 29.1 µM [cytotoxic, single point] | – |
| Cc1cc(C(=O)Nc2ccccc2N2CCOCC2)ccc1[N+](=O)[O-] | inconclusive: 18.4 µM [cytotoxic, single point] | – |
| O=C(CSc1nnnn1C1CCCC1)NCCc1ccccc1 | inconclusive: 16.4 µM [rising, single point] | – |
| O=S(=O)(c1ccccc1)N1CCN=C1SCc1cccc(Cl)c1 | inconclusive: 16.4 µM [cytotoxic, single point] | – |
| O=C1CC(C(=O)O)(c2ccccc2)c2cccc(F)c21 (configuration not stated) | inactive | – |
| CCOC(=O)C1=C(C)NC(C)=C(C(=O)OCC)C1/C=C/c1ccccc1OC | active: 20.6 µM | – |
| CCC(C)[C@H](NC(=O)NCCCOC(C)C)C(=O)OC (some centres not stated) | inactive | – |
| COc1cccc(OC)c1C(=O)NCCNc1nc2cc(C)cc(C)c2cc1C#N | inconclusive: 16.4 µM [cytotoxic, partial curve, poor fit] | – |
| CCCCCCCCCCCCCCCC[n+]1ccc(C(N)=O)cc1 | inactive | – |
| CC(NC(=O)C(C)N1CCN(S(=O)(=O)c2ccccc2)CC1)c1ccccc1 (configuration not stated) | active: 14.6 µM | – |
| CSc1ccc(CCNC(=O)CCc2c(C)nc3c(c(C)nn3-c3ccc(C)c(C)c3)c2C)cc1 | inactive | – |
| N#Cc1cc(C#N)c(N2CCN(c3cccc(Cl)n3)CC2)nc1N | active: 18.4 µM | – |
| Cc1ccc(C(C(=O)NC(C)(C)C)N(Cc2ccccc2)C(=O)c2snc(C(N)=O)c2N)o1 (configuration not stated) | inconclusive: 18.4 µM [cytotoxic, partial curve] | – |

| SMILES | Potency | activity change, negative = cytotoxicity |
| --- | --- | --- |
| CCC(C(=O)Nc1nnc2n1CCS2)c1ccccc1 (configuration not stated) | inconclusive: 29.1 µM [rising, single point] | – |
| Cc1nc2cc(C(F)(F)F)ccc2n1C1CCN(CC(=O)NC(C)(C)C)CC1 | inconclusive: 9.2 µM [cytotoxic, partial curve, poor fit] | – |
| Cc1cc(OC(C)C(=O)NCCCn2ccnc2)c2c(C)cc(=O)oc2c1 (configuration not stated) | inconclusive: 16.4 µM [rising, single point] | – |
| Cc1cc(C(=O)CN2CCC(C)CC2)c(C)n1-c1ccccc1F | inactive | – |
| Cc1ccc(Nc2nc(N)c([N+](=O)[O-])c(NCc3ccco3)n2)cc1C | active: 11.6 µM | – |
| COCCN1CCN(Cc2cn(C)nc2-c2ccc(Oc3ccccc3)cc2)CC1 | – | inconclusive: -68.4% |
| CCCN(CCC)CCNC(=O)c1cc2c(-c3ccc(Cl)cc3)nn(C)c2s1 | inactive | – |
| CCN(CC(=O)Nc1c(F)cccc1F)C(=O)c1ccc2c(c1)C(=O)N(c1ccccc1C)C2=O | inactive | – |
| CCOc1ccc2nc(NC(=O)CSc3nc4c(c(=O)n(C)c(=O)n4C)n3C(C)C)sc2c1 | active: 3.66 µM | – |
| COc1ccc(Cn2c(=O)n(-c3ccccc3C)c(=O)c3c4c(sc32)CN(C(C)=O)CC4)cc1 | inconclusive: 18.4 µM [cytotoxic, single point] | – |
| CCOc1ccccc1N1CC(C(=O)N(Cc2nnc(-c3ccccc3Cl)o2)C2CC2)CC1=O (configuration not stated) | inconclusive: 8.2 µM [cytotoxic, partial curve, poor fit] | – |
| Cc1ccc(C(=O)Nc2cnc3ccccc3c2)cc1 | inconclusive: 22.4 µM [cytotoxic, single point] | – |
| CC1(C)Cc2c(C#N)c(N3CCN(C(=O)c4ccccc4Cl)CC3)nc(-c3ccco3)c2CS1 | inactive | – |
| Cc1ccc(F)cc1C(=O)N1CCCC(c2cc(C(=O)NCc3ccccc3)no2)C1 (configuration not stated) | inconclusive: 5.8 µM [cytotoxic, full curve] | – |
| O=C(CSc1nc2ccccc2c(=O)n1NC(=O)Cc1ccccc1)NCc1ccco1 | active: 18.4 µM | – |
| C[C@@H]1CN([C@H](C)CO)C(=O)CCCn2nncc2CO[C@H]1CN(C)C(=O)Nc1ccc(N2CCN(C)CC2)cc1 | inactive | – |
| Cc1ccc(NC(=O)CSc2nc(=O)n(CCCN3CCOCC3)c3c2CCCC3)cc1F | inconclusive: 18.4 µM [rising, single point] | – |
| CS/C(N)=N/N=C/c1ccc2c(c1)OCO2 | inactive | – |
| O=Cc1ccc(OCc2cccc(C(F)(F)F)c2)cc1O | inactive | – |
| COc1ccc(-c2cn3nc4c(nc3n2)CCCC4)cc1 | inconclusive: 29.1 µM [cytotoxic, single point] | – |
| O=C(Nc1ccc2c(c1)OCCO2)C1CCN(C(=O)c2ccc(F)cc2)CC1 | inconclusive: 25.9 µM [cytotoxic, partial curve, poor fit] | – |
| CCCCn1cnc2c(sc3nc4c(cc32)CSC(C)(C)C4)c1=O | active: 20.6 µM | – |
| Cc1ccccc1S(=O)(=O)Cc1ccc(C(=O)N2CCN(c3ccc(F)cc3)CC2)o1 | inconclusive: 29.1 µM [cytotoxic, partial curve, poor fit] | – |
| CCn1c(SCC(=O)Nc2ccc(F)cc2)nnc1-c1cnccn1 | inactive | – |

3 entries from above in a different format.
SMILES	Potency	activity change, negative = cytotoxicity
Cc1nc2cc(C(F)(F)F)ccc2n1C1CCN(CC(=O)NC(C)(C)C)CC1	inconclusive: 9.2 µM [cytotoxic, partial curve, poor fit]	–
Cc1cc(OC(C)C(=O)NCCCn2ccnc2)c2c(C)cc(=O)oc2c1 (configuration not stated)	inconclusive: 16.4 µM [rising, single point]	–
Cc1cc(C(=O)CN2CCC(C)CC2)c(C)n1-c1ccccc1F	inactive	–
